The test addresses STUB1 (STIP1 homology and U-box-containing protein 1), endogenous in HL-1 cells (mouse (endogenous in HL-1)) (UniProt Q9WUD1). Nature of the test: co-IP; endogenous proteins; AC16 and HL-1 lysates in IP lysis buffer, pre-cleaned with protein A/G beads at 4 °C for 4 h, immunoprecipitated with protein A/G beads conjugated with anti-STUB1 or anti-IgG at 4 °C overnight; Western blotting.

Chains of the proteins cited; added tags and fusions are not shown.
UniProt Q9WUD1: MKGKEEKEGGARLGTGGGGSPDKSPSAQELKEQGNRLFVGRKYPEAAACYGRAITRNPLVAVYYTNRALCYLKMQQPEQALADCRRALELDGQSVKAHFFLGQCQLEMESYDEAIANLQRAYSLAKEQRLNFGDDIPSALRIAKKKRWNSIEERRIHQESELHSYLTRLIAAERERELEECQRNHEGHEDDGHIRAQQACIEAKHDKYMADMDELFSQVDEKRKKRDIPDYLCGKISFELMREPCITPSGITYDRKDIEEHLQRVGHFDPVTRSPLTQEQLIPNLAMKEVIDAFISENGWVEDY

No constants are given. Whether binding was seen depends on the method and setting. Binding seen in cells or lysates may run through a third protein. Some results given as binding are weak or reduced against the parent protein; the word gives no strength.

B1: LATS2 (large tumor suppressor kinase 2), endogenous in HL-1 cells (protein, UniProt Q7TSJ6 1-1042)
chain: MRPKTFPATTYSGNSRQRLQEIREGLKQPSKASTQGLLVGPNSDTSLDAKVLGSKDASRQQQMRATPKFGPYQKALREIRYSLLPFANESGTSAAAEVNRQMLQELVNAGCDQEMAGRALKQTGSRSIEAALEYISKMGYLDPRNEQIVRVIKQTSPGKGLAPTPVTRRPSFEGTGEALPSYHQLGGANYEGPAALEEMPRQYLDFLFPGAGAGTHGAQAHQHPPKGYSTAVEPSAHFPGTHYGRGHLLSEQPGYGVQRSSSFQNKTPPDAYSSMAKAQGGPPASLTFPAHAGLYTASHHKPAATPPGAHPLHVLGTRGPTFTGESSAQAVLAPSRNSLNADLYELGSTVPWSAAPLARRDSLQKQGLEASRPHVAFRAGPSRTNSFNNPQPEPSLPAPNTVTAVTAAHILHPVKSVRVLRPEPQTAVGPSHPAWVAAPTAPATESLETKEGSAGPHPLDVDYGGSERRCPPPPYPKHLLLPSKSEQYSVDLDSLCTSVQQSLRGGTEQDRSDKSHKGAKGDKAGRDKKQIQTSPVPVRKNSRDEEKRESRIKSYSPYAFKFFMEQHVENVIKTYQQKVSRRLQLEQEMAKAGLCEAEQEQMRKILYQKESNYNRLKRAKMDKSMFVKIKTLGIGAFGEVCLACKLDTHALYAMKTLRKKDVLNRNQVAHVKAERDILAEADNEWVVKLYYSFQDKDSLYFVMDYIPGGDMMSLLIRMEVFPEHLARFYIAELTLAIESVHKMGFIHRDIKPDNILIDLDGHIKLTDFGLCTGFRWTHNSKYYQKGNHMRQDSMEPGDLWDDVSNCRCGDRLKTLEQRAQKQHQRCLAHSLVGTPNYIAPEVLLRKGYTQLCDWWSVGVILFEMLVGQPPFLAPTPTETQLKVINWESTLHIPTQVRLSAEARDLITKLCCAADCRLGRDGADDLKAHPFFNTIDFSRDIRKQPAPYVPTISHPMDTSNFDPVDEESPWHEASGESAKAWDTLASPSSKHPEHAFYEFTFRRFFDDNGYPFRCPKPSEPAESADPGDADLEGAAEGCQPVYV
As to B1, the binding entry is recorded as “binds”.

Source of the values: publication PMC10985082.
